For 1 molecule, binding results are on record in publication PMC5558016.

Assay [1] concerns the target endogenous full-length RTTN (human (endogenous in HEK293T)) (UniProt Q86VV8). Briefly: co-IP; HEK293T cells transfected with GFP-STIL; lysates immunoprecipitated with anti-RTTN antibodies, immunoblotted with anti-STIL and anti-RTTN. For orientation: In western blotting, separated proteins are transferred to a membrane and probed.
The target in assay [2] is T1, Flag-RTTN-N (the amino-terminal region, aa 1–889), wild type (human) (UniProt Q86VV8).
T1 sequence: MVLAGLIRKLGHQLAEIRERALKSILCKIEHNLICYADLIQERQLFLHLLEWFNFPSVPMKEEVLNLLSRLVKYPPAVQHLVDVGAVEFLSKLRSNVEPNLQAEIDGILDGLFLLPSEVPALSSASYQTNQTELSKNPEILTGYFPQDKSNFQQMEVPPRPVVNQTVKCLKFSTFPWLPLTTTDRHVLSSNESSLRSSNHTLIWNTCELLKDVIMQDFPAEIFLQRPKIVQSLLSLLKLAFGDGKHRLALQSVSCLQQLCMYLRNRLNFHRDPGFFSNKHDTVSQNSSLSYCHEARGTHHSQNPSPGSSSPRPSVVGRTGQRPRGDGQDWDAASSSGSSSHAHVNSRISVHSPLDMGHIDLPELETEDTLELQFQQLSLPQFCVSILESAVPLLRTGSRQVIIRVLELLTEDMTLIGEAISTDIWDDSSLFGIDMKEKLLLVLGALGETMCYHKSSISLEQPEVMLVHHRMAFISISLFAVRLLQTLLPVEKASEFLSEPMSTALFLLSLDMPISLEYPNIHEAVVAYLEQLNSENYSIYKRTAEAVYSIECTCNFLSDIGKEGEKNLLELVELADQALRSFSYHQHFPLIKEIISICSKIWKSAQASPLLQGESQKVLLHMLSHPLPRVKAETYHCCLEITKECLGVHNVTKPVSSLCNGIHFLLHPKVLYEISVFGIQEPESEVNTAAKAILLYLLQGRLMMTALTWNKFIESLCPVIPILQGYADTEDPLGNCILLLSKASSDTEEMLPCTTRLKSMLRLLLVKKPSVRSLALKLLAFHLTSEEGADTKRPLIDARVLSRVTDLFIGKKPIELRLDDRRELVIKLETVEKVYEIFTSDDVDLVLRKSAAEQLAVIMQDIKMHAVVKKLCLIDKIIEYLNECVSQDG
Briefly: co-IP; HEK293T cells co-transfected with GFP-STIL and Flag-tagged RTTN constructs; NP-40 lysis buffer (50 mM Tris-HCl pH 8.0, 150 mM NaCl, 1% NP-40); IP 2 h at 4 °C (anti-Flag in Fig. 7f), protein-G-sepharose, immunoblot.

These are yes or no findings as the source states them, for the method shown. In cells and extracts the contact can be indirect. Some entries that bind do so weakly or less than the wild type. Where a sequence is shown, tags or fusion partners need not be part of it.

B1: GFP-tagged full-length STIL (protein, UniProt Q15468-2 1-1288)
chain: MEPIYPFARPQMNTRFPSSRMVPFHFPPSKCALWNPTPTGDFIYLHLSYYRNPKLVVTEKTIRLAYRHAKQNKKNSSCFLLGSLTADEDEEGVTLTVDRFDPGREVPECLEITPTASLPGDFLIPCKVHTQELCSREMIVHSVDDFSSALKALQCHICSKDSLDCGKLLSLRVHITSRESLDSVEFDLHWAAVTLANNFKCTPVKPIPIIPTALARNLSSNLNISQVQGTYKYGYLTMDETRKLLLLLESDPKVYSLPLVGIWLSGITHIYSPQVWACCLRYIFNSSVQERVFSESGNFIIVLYSMTHKEPEFYECFPCDGKIPDFRFQLLTSKETLHLFKNVEPPDKNPIRCELSAESQNAETEFFSKASKNFSIKRSSQKLSSGKMPIHDHDSGVEDEDFSPRPIPSPHPVSQKISKIQPSVPELSLVLDGNFIESNPLPTPLEMVNNENPPLINHLEHLKPLQPQLYDEKHSPEVEAGEPSLRGIPNQLNQDKPALLRHCKVRQPPAYKKGNPHTRNSIKPSSHNGPSHDIFEKLQTVSAGNVQNEEYPIRPSTLNSRQSSLAPQSQPHDFVFSPHNSGRPMELQIPTPPLPSYCSTNVCRCCQHHSHIQYSPLNSWQGANTVGSIQDVQSEALQKHSLFHPSGCPALYCNAFCSSSSPIALRPQGDMGSCSPHSNIEPSPVARPPSHMDLCNPQPCTVCMHTPKTESDNGMMGLSPDAYRFLTEQDRQLRLLQAQIQRLLEAQSLMPCSPKTTAVEDTVQAGRQMELVSVEAQSSPGLHMRKGVSIAVSTGASLFWNAAGEDQEPDSQMKQDDTKISSEDMNFSVDINNEVTSLPGSASSLKAVDIPSFEESNIAVEEEFNQPLSVSNSSSLVVRKEPDVPVFFPSGQLAESVSMCLQTGPTGGASNNSETSEEPKIEHVMQPLLHQPSDNQKIYQDLLGQVNHLLNSSSKETEQPSTKAVIISHECTRTQNVYHTKKKTHHSRLVDKDCVLNATLKQLRSLGVKIDSPTKVKKNAHNVDHASVLACISPEAVISGLNCMSFANVGMSGLSPNGVDLSMEANAIALKYLNENQLSQLSVTRSNQNNCDPFSLLHINTDRSTVGLSLISPNNMSFATKKYMKRYGLLQSSDNSEDEEEPPDNADSKSEYLLNQNLRSIPEQLGGQKEPSKNDHEIINCSNCESVGTNADTPVLRNITNEVLQTKAKQQLTEKPAFLVKNLKPSPAVNLRTGKAEFTQHPEKENEGDITIFPESLQPSETLKQMNSMNSVGTFLDVKRLRQLPKLF
With B1, the binding result in assay [1] and in assay [2] was “binds” each time.
